Data published in patent US10292979B2, “Methods of treating cancer patients with farnesyltransferase inhibitors” (Kura Oncology, Inc., priority 2015, dated 2019).
Like-named read-outs stand apart in the source and are kept apart here. For some assays here: At least one structure is not confirmed: it was looked up by name or label, or the drawing left a doubt. Some results were stated once for a whole list of compounds, not compound by compound. Some ranges recur; such a range may be that of the whole group of compounds.

Protein sequences, listed by entry. Tags and fused reporters are not part of them.
UniProt P53609, whole entry: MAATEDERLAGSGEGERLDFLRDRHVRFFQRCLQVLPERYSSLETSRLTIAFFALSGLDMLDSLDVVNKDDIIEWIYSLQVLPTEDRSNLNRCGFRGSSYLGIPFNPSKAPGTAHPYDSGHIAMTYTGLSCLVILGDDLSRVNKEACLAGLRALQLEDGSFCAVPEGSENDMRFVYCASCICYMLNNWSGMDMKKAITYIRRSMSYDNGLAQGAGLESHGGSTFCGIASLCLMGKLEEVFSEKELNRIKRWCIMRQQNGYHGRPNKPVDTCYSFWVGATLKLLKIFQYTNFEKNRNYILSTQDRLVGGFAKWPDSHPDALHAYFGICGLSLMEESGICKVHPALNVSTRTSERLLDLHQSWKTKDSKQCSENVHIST

How the values were obtained:
[1] = target: geranylgeranyltransferase I (Homo sapiens, UniProt P49354+P53609); details: selectivity; cited from earlier work
patients with MDS = details: cited from earlier work
AML patients [2] = details: phase III, tipifarnib versus best supportive care (BSC); cited from earlier work
FTase = FTase (Homo sapiens, UniProt P49354+P49356); details: competitively inhibits the CAAX peptide binding site of FTase; cited from earlier work
AML patients [3] = experiment: Clinical outcome of AML patients treated with tipifarnib versus NK cell biomarker expression in bone marrow (GSE8970/CTEP-20, GSE5122); format: in vivo, human
Experimental: The current study used microarray data generated from global gene expression assay of bone marrow samples collected in two clinical studies investigating the efficacy and safety of FTI tipifarnib. One clinical study was conducted in adult patients aged 65 years or older with previously untreated AML, and the other conducted in relapsed and refractory AML. The clinical results for these studies were previously published (Lancet et al., Blood 109:1387-1394 (2007); Harousseau et al., Blood 9:9 (2007); Raponi et al., Clin. Cancer Res. 13:2254-2260 (2007)), and the gene profiling data were publically available in NCBI's Gene Expression Omnibus (GEO, http://www.ncbi.nlm.nih.gov/geo) and are assessable through GEO Series accession numbers GSE8970 and GSE5122.
As described in Raponi et al., Blood 111:2589-96 (2008), BM samples were collected from consenting patients before treatment with tipifarnib, and mononuclear cells were processed on site. Total RNA was extracted from cell samples, quality controlled, and further processed for microarray analysis. DNA was isolated from the same sample. Samples were assayed for global gene expression, and/or quantitative polymerase chain reaction (QPCR) of specific genes).
Briefly, CR was defined as BM showing less than 5% myeloblasts with normal maturation of all cell lines, absolute neutrophil count (ANC) of at least 10^9/L (1000/μL), and a platelet count of 100×10^9/L (100 000/μL). PR was defined as the presence of recovery of ANC and platelets to the above stated levels, but with 5% to 19% BM blasts, and a greater than 50% decrease in BM blast percentage from baseline. HI was defined as the same as PR, except with recovery of ANC to 0.5 to 1×10^9/L (500 to 1000/μL) and platelet count to 20 to 100×10^9/L (20 000 to 100 000/μL). […]

[4] = system: relapsed or refractory PTCL; details: range stated for the three drugs together; cited from earlier work

Cn1cncc1[C@@](N)(c1ccc(Cl)cc1)c1ccc2c(c1)c(-c1cccc(Cl)c1)cc(=O)n2C [Tipifarnib, (B)-6-[amino(4-chlorophenyl)(1-methyl-1H-imidazol-5-yl)methyl]-4-(3-ch-lorophenyl)-1-methyl-2(1H)-quinolinone]
inhibition of geranylgeranyltransferase I [1]: not an inhibition of geranylgeranyltransferase I
Objective response (3 HI, 2PR and 1 CR), share of evaluable patients (patients with MDS; 6 of 20 evaluable MDS patients, twice daily, 3-weeks-on/1-week-off): 30%
Duration (of response) (patients with MDS; CMML patient, total daily dose 600 mg, Ras mutation yes (K-RAS)): 2 Month
Duration (of response) (patients with MDS; CMML patient, total daily dose 600 mg, Ras mutation yes (N-RAS)): 6 Month
Duration (of response) (patients with MDS; CMML patient, total daily dose 800 mg, no Ras mutation): 16+ Month
Duration (of response) (patients with MDS; RAEB patient, total daily dose 300 mg (started at 600 mg/d, reduced after 2 weeks), no Ras mutation): 16 Month
Duration (of response) (patients with MDS; RAEB patient, total daily dose 900 mg, no Ras mutation): 3 Month
Duration (of response) (patients with MDS; RAEB-T patient, total daily dose 800 mg, no Ras mutation): 9+ Month
improvement in overall survival (AML patients [2]): failed to demonstrate improvement in overall survival
inhibition of farnesylation (FTase): extremely potent and highly selective inhibitor of farnesylation
PFS, highest (4th) quartile of KIR2DS5 expression compared to the rest of the patients (AML patients [3]; FIG. 1B): statistically significant longer PFS
OS and PFS, highest (4th) quartile of GZMM expression compared to the rest of the patients (AML patients [3]; FIG. 6A): statistically significant longer OS and PFS
OS, highest (4th) quartile of KIR2DS2 expression compared to the rest of the patients (AML patients [3]; FIG. 7A, 7B): statistically significant longer OS

O=C(/C=C/c1cccc(S(=O)(=O)Nc2ccccc2)c1)NO [belinostat]
durations of response [4]: 8.2-9.4 months
objective response rates (overall response rate, ORR) [4]: 25-27%

C#CCC(Cc1cnc2nc(N)nc(N)c2n1)c1ccc(C(=O)N[C@@H](CCC(=O)O)C(=O)O)cc1 (some centres unmarked) [pralatrexate]
durations of response [4]: 8.2-9.4 months
objective response rates (overall response rate, ORR) [4]: 25-27%
